Laboratory results reported in paper PMC5686453 (ACS chemical neuroscience, 2017).

Legend:
[1] = tested on: 0.6% acetic acid-induced writhing in mice; assay: 0.6% acetic acid-induced writhing; assay type: in vivo, ICR mice; details: s.c. pretreatment, 25 min observation
[2] = tested on: 0.32% lactic acid-induced writhing in mice; assay type: in vivo, ICR mice; details: s.c. pretreatment, 25 min observation
[3] = tested on: lactic acid-depressed nesting in mice; details: previous study; cited from earlier work

CN1CC[C@]23c4c5ccc(O)c4O[C@H]2[C@@H](O)C=C[C@H]3[C@H]1C5 [morphine, reference compound]
effect on 0.6% acetic acid-induced writhing (in words) [1]: dose-dependently attenuated | effect on […] lactic acid-induced writhing (in words) [2]: dose-dependently reduced | reversal of depressed nesting behavior in […] lactic acid-treated mice [3]: partially effective
